# Assay results as given in PubChem BioAssay AID1347423 (Functional Genomics Laboratory (NCATS/FGL), 2020).
# In all, about 52,000 sequences went through this assay and about 210 (0.4%) were called active.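 The calls were made as follows: active = gene whose silencing raises cell survival under the drug, median off-target-corrected z-score across its silencing RNAs 2 or more; inactive = the rest.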 This is one part of the list.
# Assay: Resistance to Poly (ADP-Ribose) Polymerase inhibitor: Gene Identification via Genome-wide siRNA Screen
# Conditions: mouse BRCA2 R2336H ES cells, olaparib, CellTiter-Glo viability; hits give high values
# In short: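 Genome-wide siRNA screen (3 siRNAs/gene, 20 nM) in mouse ES cells carrying hypomorphic BRCA2 R2336H; olaparib 500 nM added 48 h post-transfection, CellTiter-Glo viability 72 h later. Normalized to plate-median negative control; MAD z-scores, gene median, seed-adjusted.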
row,Sequence,z-score
1,UAGUCAUCUUCACUCUCCUTT against Olfr1249,inactive: -0.733
2,GGGCCUAUGCUUACAAACGTT against Pkp3,inactive: 0.505
3,CGGACACAUUGACUGAAUATT against Lphn1,inactive: 0.438
4,GGCUGUGCAGUCUACAAUCTT against 1110014D18Rik,inactive: 0.36
5,CGGACAUUGUUCUGUUUUCTT against Por,inactive: 1.14
6,CCUAGAGACCCAUUCUCUATT against 2210409E12Rik,inactive: 0.0739
7,GGCCAAACAGUUAUCUGAATT against AI182371,inactive: -0.487
8,CCACGAGUGAAUUAUAAUCTT against 6820416H06Rik,inactive: -0.242
9,CGGUAAUCUUAUGACAACUTT against Gpc6,inactive: 0.181
10,CCUGGUAUAGAGUGAAAUCTT against 4930522H14Rik,inactive: -0.283
11,GGUUGGAAAUGAAAUCAAUTT against D14Ertd171e,inactive: -0.596
12,GGCUUAUUGGAAGAGGACGTT against Ier5,inactive: -0.191
13,GGAUAAGAUCCGACUAUUCTT against Evc2,inactive: 0.108
14,GGAACACACUAAAAUUCGATT against Cyp17a1,inactive: 0.12
15,GCCUCAUCGUUGCUGACUATT against Pde3b,inactive: 2.31
16,GGUAACUGUGGACUUAUCUTT against Olfr665,inactive: -0.67
17,GCUUUUAAGAUCUCCCUCCTT against Gtf2h3,inactive: 1.14
18,GGUCGAACAUUUAAACUCUTT against Ifit3,inactive: -1.59
19,GGCUGAGAACAUCAAAAAATT against Folh1,inactive: -0.274
20,GCUGUGCUUACAUGUUUACTT against Rpn2,inactive: -0.102
21,CGGAUUCUUUUCUAAAGUGTT against Lox,inactive: 1.13
22,CCUAAAAGGGUUUUGCUUCTT against H2afy3,inactive: 0.76
23,GCGCAAAAAGGGAUCUAAGTT against Ogg1,inactive: 0.186

row,Sequence,z-score
1,GCGUAAAGUAAAACAGCUUTT against 2610033H07Rik,inactive: -1.47
2,CGGAUGAUCGAUUUAAAGUTT against Gm67,inactive: -1.49
3,GGCUGUAAAUAAAUGCCUUTT against Cdc25c,inactive: -2.15
4,GGACAAAUACCACAAGUUGTT against 4732471D19Rik,inactive: 0.0292
5,GCAUAGCAGAGCUGUGCUATT against Aprt,inactive: -0.403
6,CCGAGGGUACCUAAGGUUUTT against Ell3,inactive: -1.14
7,GCUAGGUUCCAGCAAUUGCTT against Zfp393,inactive: 0.743
8,GGCCAUAAAACAUAAGCUATT against Tmem17,inactive: 1.1
9,GCAUCACACCACAGAAAGUTT against Hmgcll1,inactive: -2.48
10,CCAAAUGAAAUUCAUUCUCTT against Ptger2,inactive: 0.312
11,GGAGGAGAACAGCAAUCUUTT against Speer4d,inactive: -2.4
12,GGAAACGAAGAGGAAGAAUTT against Ddit3,inactive: -0.803
13,UUGGCUGCAUUAUCAUGAGTT against Olfr311,inactive: 0.638
14,GGGAACAUAAUGGAAAUGUTT against Il1f6,inactive: -0.44
15,GGGCGUACUCAACGUGAUUTT against BC013481,inactive: -0.5
16,GCAUAAUGUUACCUAAGUCTT against Ifngr1,inactive: -0.726
17,CGUGGAAAAGCUAUGUGCGTT against Lif,inactive: 1.44
18,GGUCCAGCUAUCCUUGACCTT against Hgfac,inactive: 0.231
19,GGUUCUUAAACUCAAAUCUTT against Alox12b,inactive: 1.29
20,GGUAUUGUGGAAAUUCCCATT against BC042698,inactive: 0.0792
21,GGAAAAGCCUCAUUAGUUUTT against 5730420B22Rik,inactive: 0.68
22,GCAGCAGACAAUUAUGAAUTT against E130115E03Rik,inactive: -0.804
23,GCUACAGUUCAGGGACUUGTT against Leng9,inactive: -0.656

row,Sequence,z-score
1,GCCGUACAACAAUGAAUAUTT against Pcdh20,inactive: -1.22
2,GGGAGGAUUCAUGUUGUGUTT against Morc,inactive: -2.26
3,GGACCGCUUCAAAACUGGUTT against Hcrtr2,inactive: -0.707
4,CCAGCGAUCUUCCCAUUCUTT against Ccr8,inactive: 0.737
5,GGUCAUCUUCCUUUUUGCUTT against Olfr1501,inactive: 0.426
6,GGCAUUUCUUCUUCUUCACTT against Ms4a3,inactive: -0.367
7,CCUGCUAAUUUCAAGUGUATT against Abcg3,inactive: -0.67
8,GGCUAGAGUUCACGUUGGATT against Mrps26,inactive: -0.479
9,GGUAGAGGCAAGAAAUUCATT against Slc5a5,inactive: -0.579
10,GGAACUCUUUUCCUAAAAUTT against Slco1a5,inactive: 0.824
11,CCACAUUUUGGCCUAUCAGTT against Mtx2,inactive: 1.11
12,GACUCCCAGCUGGCUAUGATT against Ifna9,inactive: -0.81
13,GGUACUCACAUCUCCAAAGTT against BC049807,inactive: -0.778
14,GCUGUAACCAACAUACCUCTT against 6230427J02Rik,inactive: 1.38
15,GGUGAAAGACCACAAAUUCTT against Prkca,inactive: -0.0256
16,GGAAAAGCUUCUAAAGGAGTT against Tnfaip3,inactive: -0.295
17,CCUUACUCAAGAUCCUGCUTT against Olfr1243,inactive: 0.202
18,CCAUUUUACACCUCAAUCATT against 2310009E04Rik,inactive: -0.624
19,GGGACAGGUUGUUCAGUUCTT against Dbt,inactive: -1.54
20,CGAAACCUGCUUAAAACAATT against E330016A19Rik,inactive: -0.469
21,GGCCCAGAUUUCUUAUAUATT against Tnfrsf19,inactive: -0.793
